experiment: Curability test: curing rate test of UV-irradiated coating film; conditions: 1 part initiator solution (SbF6 salt, propylene carbonate) per 100 parts UVR-6110; time for pencil hardness of cured film to reach HB after UV irradiation

Q: For “(4-phenylthiophenyl)diphenylsulfonium hexafluoroantimonate [Example 6]”, which Curing rate is on record?
A: Its Curing rate is 170 s.

Q: Which Curing rate does the source give for “(4-phenylthiophenyl)diphenyl-sulfonium hexafluoroantimonate [Example 7]” here?
A: Its Curing rate is 175 s.

Q: With “(4-phenylthiophenyl)diphenylsulfonium hexafluoroantimonate [Comparative Example 5, reference compound]” as the compound, how does the Curing rate read?
A: The Curing rate was 165 s.

Q: For “(4-phenylthiophenyl)diphenylsulfonium hexafluoroantimonate [Comparative Example 4, reference compound]”, which Curing rate is on record?
A: The Curing rate was 240 s.

Q: For “(4-phenylthiophenyl)diphenylsulfonium hexafluoroantimonate [Example 8]”, which Curing rate is on record?
A: Its Curing rate is 165 s.

same assay, conditions: 5 parts initiator solution (PF6 salt, propylene carbonate) per 100 parts UVR-6110; time for pencil hardness of cured film to reach HB after UV irradiation

Q: For F[P-](F)(F)(F)(F)F.O=C(c1ccccc1)c1ccc(Sc2ccc([S+](c3ccccc3)c3ccccc3)cc2)cc1 [Example 4, [4-(4-benzoylphenyl)thiophenyl]-diphenylsulfonium hexafluorophosphate], which Curing rate is on record?
A: The Curing rate was 130 s.

Q: With F[P-](F)(F)(F)(F)F.c1ccc(Sc2ccc([S+](c3ccccc3)c3ccccc3)cc2)cc1 [Example 2, (4-phenylthiophenyl)diphenylsulfonium hexafluorophosphate] as the compound, how does the Curing rate read?
A: The Curing rate was 135 s.

Q: With F[P-](F)(F)(F)(F)F.c1ccc(Sc2ccc([S+](c3ccccc3)c3ccccc3)cc2)cc1 [Comparative Example 1, (4-phenylthiophenyl)diphenylsulfonium hexafluorophosphate, reference compound] as the compound, how does the Curing rate read?
A: Its Curing rate is 225 s.

Q: With F[P-](F)(F)(F)(F)F.c1ccc(Sc2ccc([S+](c3ccccc3)c3ccccc3)cc2)cc1 [Comparative Example 3, (4-phenylthiophenyl)diphenylsulfonium hexafluorophosphate, reference compound] as the compound, how does the Curing rate read?
A: The Curing rate was 430 s.

Q: With F[P-](F)(F)(F)(F)F.c1ccc(Sc2ccc([S+](c3ccccc3)c3ccccc3)cc2)cc1 [Example 1, (4-phenylthiophenyl)diphenylsulfonium hexafluorophosphate] as the compound, how does the Curing rate read?
A: Its Curing rate is 130 s.

Q: Which Curing rate does the source give for Cc1ccc([S+](c2ccc(C)cc2)c2ccc(Sc3ccccc3)cc2)cc1.F[P-](F)(F)(F)(F)F [Example 3, (4-phenylthiophenyl)-4,4′-dimethyldiphenylsulfonium hexafluorophosphate] here?
A: Its Curing rate is 125 s.

Q: Which Curing rate does the source give for F[P-](F)(F)(F)(F)F.c1ccc(Sc2ccc([S+](c3ccccc3)c3ccccc3)cc2)cc1 [Example 5, (4-phenylthiophenyl)diphenylsulfonium hexafluorophosphonate] here?
A: Its Curing rate is 125 s.

experiment: Reference Example curability test (effect of unreacted starting materials); conditions: 3 parts of 50% propylene carbonate solution per 100 parts UVR-6110; pencil hardness after 10 minutes of UV irradiation

Q: For F[P-](F)(F)(F)(F)F.c1ccc(Sc2ccc([S+](c3ccccc3)c3ccccc3)cc2)cc1 [compound 10, (4-phenylthiophenyl)diphenylsulfonium hexafluorophosphate], which “Cured film hardness after 10 min.” value is on record?
A: The value was 3B.

same assay, conditions: 3 parts of 50% propylene carbonate solution per 100 parts UVR-6110; time for pencil hardness of coating film to reach HB

Q: With F[P-](F)(F)(F)(F)F.c1ccc(Sc2ccc([S+](c3ccccc3)c3ccccc3)cc2)cc1 [compound 10, (4-phenylthiophenyl)diphenylsulfonium hexafluorophosphate] as the compound, how does the Curing time read?
A: The Curing time was over 600 s.

Q: With F[P-](F)(F)(F)(F)F.c1ccc(Sc2ccc([S+](c3ccccc3)c3ccccc3)cc2)cc1 [compound 1, (4-phenylthiophenyl)diphenylsulfonium hexafluorophosphate] as the compound, how does the Curing time read?
A: Its Curing time is 170 s.

Source: US7709548B2, “Method for manufacturing monosulfonium salt, cationic polymerization initiator, curable composition, and cured product” (San-Apro Limited, priority 2003, dated 2010)
